# Test results: PMC11807764
# Protein sequences, listed by entry. Tags and fused reporters are not part of them. Residues count along the entry.
# UniProt P13473, residues 29-410: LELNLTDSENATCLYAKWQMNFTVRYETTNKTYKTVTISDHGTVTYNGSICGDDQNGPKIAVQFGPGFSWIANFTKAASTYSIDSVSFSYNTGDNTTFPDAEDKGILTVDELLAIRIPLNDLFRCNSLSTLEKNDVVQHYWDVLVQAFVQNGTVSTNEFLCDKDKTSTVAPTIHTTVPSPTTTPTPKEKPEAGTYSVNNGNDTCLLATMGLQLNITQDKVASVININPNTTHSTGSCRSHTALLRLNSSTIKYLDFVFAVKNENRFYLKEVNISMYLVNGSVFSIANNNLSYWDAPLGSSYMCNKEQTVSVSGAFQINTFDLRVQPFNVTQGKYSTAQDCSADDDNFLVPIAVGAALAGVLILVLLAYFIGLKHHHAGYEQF
# No constants are given. Whether binding was seen depends on the method and setting. Binding seen in cells or lysates may run through a third protein. Some results given as binding are weak or reduced against the parent protein; the word gives no strength.
# B1: 3-hydroxy-3-methylglutaryl coenzyme A (HMGCR) (enzyme, UniProt P04035 1-888)
# chain: MLSRLFRMHGLFVASHPWEVIVGTVTLTICMMSMNMFTGNNKICGWNYECPKFEEDVLSSDIIILTITRCIAILYIYFQFQNLRQLGSKYILGIAGLFTIFSSFVFSTVVIHFLDKELTGLNEALPFFLLLIDLSRASTLAKFALSSNSQDEVRENIARGMAILGPTFTLDALVECLVIGVGTMSGVRQLEIMCCFGCMSVLANYFVFMTFFPACVSLVLELSRESREGRPIWQLSHFARVLEEEENKPNPVTQRVKMIMSLGLVLVHAHSRWIADPSPQNSTADTSKVSLGLDENVSKRIEPSVSLWQFYLSKMISMDIEQVITLSLALLLAVKYIFFEQTETESTLSLKNPITSPVVTQKKVPDNCCRREPMLVRNNQKCDSVEEETGINRERKVEVIKPLVAETDTPNRATFVVGNSSLLDTSSVLVTQEPEIELPREPRPNEECLQILGNAEKGAKFLSDAEIIQLVNAKHIPAYKLETLMETHERGVSIRRQLLSKKLSEPSSLQYLPYRDYNYSLVMGACCENVIGYMPIPVGVAGPLCLDEKEFQVPMATTEGCLVASTNRGCRAIGLGGGASSRVLADGMTRGPVVRLPRACDSAEVKAWLETSEGFAVIKEAFDSTSRFARLQKLHTSIAGRNLYIRFQSRSGDAMGMNMISKGTEKALSKLHEYFPEMQILAVSGNYCTDKKPAAINWIEGRGKSVVCEAVIPAKVVREVLKTTTEAMIEVNINKNLVGSAMAGSIGGYNAHAANIVTAIYIACGQDAAQNVGSSNCITLMEASGPTNEDLYISCTMPSIEIGTVGGGTNLLPQQACLQMLGVQGACKDNPGENARQLARIVCGTVMAGELSLMAALAAGHLVKSHMIHNRSKINLQDLQGACTKKTA
# Target: lysosome-associated membrane protein 2A (LAMP2A) (UniProt P13473)
# Assay: co-IP; lysate of LAMP2A-overexpressing cells (HepG2 treated with PA 300 µM for 12 h) in IP lysis buffer with protease inhibitors; anti-LAMP2A antibody overnight, Protein A/G magnetic beads 4 h at 4°C, five washes with lysis buffer
binder,measurement,value
B1,binding,binds
